Assay results: article PMC11417359
No constants are given. Whether binding was seen depends on the method and setting. Binding seen in cells or lysates may run through a third protein. Some entries that bind do so weakly or less than the wild type.

By UniProt entry, the sequences of proteins in these tests, tags left out.
UniProt Q91ZW3: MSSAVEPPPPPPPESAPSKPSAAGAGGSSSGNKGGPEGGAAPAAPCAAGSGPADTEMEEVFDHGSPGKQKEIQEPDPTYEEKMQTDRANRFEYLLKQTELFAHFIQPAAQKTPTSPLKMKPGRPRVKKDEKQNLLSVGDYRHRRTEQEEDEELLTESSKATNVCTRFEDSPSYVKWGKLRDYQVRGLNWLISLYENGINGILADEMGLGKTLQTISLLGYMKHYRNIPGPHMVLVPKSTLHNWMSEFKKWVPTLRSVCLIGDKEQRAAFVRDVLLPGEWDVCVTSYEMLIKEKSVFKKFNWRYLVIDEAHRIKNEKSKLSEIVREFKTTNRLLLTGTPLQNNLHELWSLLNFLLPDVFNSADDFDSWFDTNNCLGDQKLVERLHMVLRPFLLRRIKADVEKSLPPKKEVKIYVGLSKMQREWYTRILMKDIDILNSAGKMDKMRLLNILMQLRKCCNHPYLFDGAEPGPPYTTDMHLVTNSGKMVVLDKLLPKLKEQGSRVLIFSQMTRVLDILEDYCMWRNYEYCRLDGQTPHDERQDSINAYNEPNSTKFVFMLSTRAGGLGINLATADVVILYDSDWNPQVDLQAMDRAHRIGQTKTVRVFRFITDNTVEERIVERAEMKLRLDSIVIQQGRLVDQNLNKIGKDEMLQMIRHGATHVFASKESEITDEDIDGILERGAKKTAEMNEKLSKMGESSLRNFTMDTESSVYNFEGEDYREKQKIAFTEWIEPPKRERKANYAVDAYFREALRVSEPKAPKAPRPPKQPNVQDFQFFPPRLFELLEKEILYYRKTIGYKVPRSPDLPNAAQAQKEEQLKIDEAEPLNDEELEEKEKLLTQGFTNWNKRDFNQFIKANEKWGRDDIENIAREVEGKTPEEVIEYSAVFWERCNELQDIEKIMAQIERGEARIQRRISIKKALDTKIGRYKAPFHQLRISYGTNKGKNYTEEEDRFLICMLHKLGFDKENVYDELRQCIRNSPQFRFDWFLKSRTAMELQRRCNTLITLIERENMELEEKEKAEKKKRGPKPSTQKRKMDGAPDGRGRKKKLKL
UniProt Q3TKT4: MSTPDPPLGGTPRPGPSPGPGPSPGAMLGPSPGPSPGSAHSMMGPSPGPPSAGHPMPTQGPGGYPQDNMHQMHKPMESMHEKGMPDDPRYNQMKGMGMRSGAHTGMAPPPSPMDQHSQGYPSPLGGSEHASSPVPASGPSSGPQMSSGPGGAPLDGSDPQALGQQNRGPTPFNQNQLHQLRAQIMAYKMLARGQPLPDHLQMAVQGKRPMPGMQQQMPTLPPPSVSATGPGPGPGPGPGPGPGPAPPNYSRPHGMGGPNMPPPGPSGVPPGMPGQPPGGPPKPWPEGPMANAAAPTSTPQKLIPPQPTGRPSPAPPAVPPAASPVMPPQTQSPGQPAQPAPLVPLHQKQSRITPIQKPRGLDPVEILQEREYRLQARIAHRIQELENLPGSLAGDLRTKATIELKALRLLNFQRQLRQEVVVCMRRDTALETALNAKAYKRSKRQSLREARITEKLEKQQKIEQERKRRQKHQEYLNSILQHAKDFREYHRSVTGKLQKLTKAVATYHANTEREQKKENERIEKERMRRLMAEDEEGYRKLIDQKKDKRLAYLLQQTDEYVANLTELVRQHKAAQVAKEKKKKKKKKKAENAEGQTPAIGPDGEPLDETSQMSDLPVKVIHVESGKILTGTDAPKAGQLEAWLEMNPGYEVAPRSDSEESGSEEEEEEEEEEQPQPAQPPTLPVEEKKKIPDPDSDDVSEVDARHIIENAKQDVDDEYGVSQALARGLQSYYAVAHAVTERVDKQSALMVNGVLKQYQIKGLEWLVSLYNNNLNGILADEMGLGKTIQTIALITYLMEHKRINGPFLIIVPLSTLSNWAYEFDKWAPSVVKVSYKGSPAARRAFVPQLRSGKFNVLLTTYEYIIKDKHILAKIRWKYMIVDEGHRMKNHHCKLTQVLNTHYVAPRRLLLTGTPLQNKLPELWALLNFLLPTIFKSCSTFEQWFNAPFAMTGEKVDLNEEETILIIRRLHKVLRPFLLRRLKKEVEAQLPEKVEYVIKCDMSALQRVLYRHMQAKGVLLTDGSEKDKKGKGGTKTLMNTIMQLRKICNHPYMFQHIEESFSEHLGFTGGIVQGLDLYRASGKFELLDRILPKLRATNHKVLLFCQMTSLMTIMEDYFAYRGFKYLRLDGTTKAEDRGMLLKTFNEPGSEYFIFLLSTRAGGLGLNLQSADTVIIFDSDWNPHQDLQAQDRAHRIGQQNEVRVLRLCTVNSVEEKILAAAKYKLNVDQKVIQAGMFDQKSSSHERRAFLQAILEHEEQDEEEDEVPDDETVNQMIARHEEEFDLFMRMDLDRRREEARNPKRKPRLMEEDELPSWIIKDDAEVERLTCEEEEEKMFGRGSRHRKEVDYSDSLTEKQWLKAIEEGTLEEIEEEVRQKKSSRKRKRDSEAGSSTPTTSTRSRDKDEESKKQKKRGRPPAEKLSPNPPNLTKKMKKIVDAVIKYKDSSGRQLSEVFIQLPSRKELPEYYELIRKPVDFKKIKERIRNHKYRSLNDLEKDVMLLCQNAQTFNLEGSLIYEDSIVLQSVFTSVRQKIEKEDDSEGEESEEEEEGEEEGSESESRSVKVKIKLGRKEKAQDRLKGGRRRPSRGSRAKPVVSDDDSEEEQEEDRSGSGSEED
UniProt O54941: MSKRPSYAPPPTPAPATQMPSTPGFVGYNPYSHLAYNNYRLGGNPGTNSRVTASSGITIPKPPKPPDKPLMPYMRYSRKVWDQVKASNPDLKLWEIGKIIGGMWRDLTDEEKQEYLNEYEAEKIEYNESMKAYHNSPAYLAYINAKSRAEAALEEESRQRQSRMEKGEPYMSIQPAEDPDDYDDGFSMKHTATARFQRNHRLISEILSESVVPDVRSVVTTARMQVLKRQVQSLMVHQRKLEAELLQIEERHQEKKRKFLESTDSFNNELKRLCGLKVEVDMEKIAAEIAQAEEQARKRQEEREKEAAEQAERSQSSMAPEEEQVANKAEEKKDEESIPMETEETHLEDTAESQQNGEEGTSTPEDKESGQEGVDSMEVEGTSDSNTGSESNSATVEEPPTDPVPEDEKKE

Molecular target: T1, HSF5 (fifth member of the heat shock factor family) (mouse (endogenous in testis)) (UniProt Q5ND04)
T1 sequence: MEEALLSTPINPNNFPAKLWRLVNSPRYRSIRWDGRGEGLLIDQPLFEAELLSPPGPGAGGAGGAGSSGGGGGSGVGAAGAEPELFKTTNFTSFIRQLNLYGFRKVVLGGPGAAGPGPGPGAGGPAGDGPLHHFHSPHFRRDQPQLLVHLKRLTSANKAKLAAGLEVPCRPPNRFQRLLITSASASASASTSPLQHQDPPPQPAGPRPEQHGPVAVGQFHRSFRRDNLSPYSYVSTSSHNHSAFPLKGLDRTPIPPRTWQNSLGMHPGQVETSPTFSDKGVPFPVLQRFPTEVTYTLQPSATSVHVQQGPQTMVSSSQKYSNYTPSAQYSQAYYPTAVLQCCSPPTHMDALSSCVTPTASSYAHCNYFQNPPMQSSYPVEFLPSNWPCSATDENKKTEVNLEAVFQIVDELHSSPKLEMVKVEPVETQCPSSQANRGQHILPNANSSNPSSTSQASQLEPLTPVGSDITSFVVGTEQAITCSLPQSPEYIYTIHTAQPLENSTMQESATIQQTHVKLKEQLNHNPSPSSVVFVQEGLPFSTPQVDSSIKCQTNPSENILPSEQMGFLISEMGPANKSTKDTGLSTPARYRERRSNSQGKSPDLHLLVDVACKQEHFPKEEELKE
Test: co-IP; co-IP from WT mouse testis lysate, detected by Western blot (Figure 7I); GAPDH as loading control

binding | Substance
binds | SMARCA5 (from UniProt Q91ZW3 1-1051)
binds | SMARCA4 (from UniProt Q3TKT4 1-1613)
binds | SMARCE1 (from UniProt O54941 1-411)
